PubChem BioAssay AID504786 – Drosophila RNAi Screening Center | 2011
In all, the deposit lists about 21,000 reagents; shown is a random part of those that have a named target and a result. 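Primary screen; positive scores mean lost reporter signal, so the sign may be inverted from the usual convention.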 The numbers tell different reagents against one gene apart. Names joined by + are all predicted targets of the reagent.

- Screen: 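Knock-downs reducing HIF reporter induction by the iron chelator DFO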 (primary screen)
- Cell system: Drosophila S2 cells with a stable HIF luciferase reporter
- Knock-down reagent: long dsRNA against Drosophila genes, about 0.2 µg dsRNA per well of a 384-well plate
- Duration: three days of knock-down, then 20 h of DFO before reading
- Challenge: desferrioxamine (DFO) at 100 µM, an iron chelator that mimics hypoxia, for 20 h
- Measurement: 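HIF reporter luminescence in cells given 100 µM DFO for 20 h, using the mouse ldh-a hypoxia-response element, scored as per-plate z-scores; higher means greater loss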
- Reading the numbers: z-score: higher = stronger loss of HIF reporter signal

What did the screen give for CG33791 + CG12105 + CG18170?
z-score, replicate 1: -0.3; z-score, replicate 2: 0.8

What did the screen give for PICK1?
z-score, replicate 1: -0.4; z-score, replicate 2: -0.3

For CG15347, how do the results read?
z-score, replicate 1: -0.2; z-score, replicate 2: -0.7

With CG32473 #1, what was measured?
z-score, replicate 1: 0.1; z-score, replicate 2: -0.3

For CG32473 #2, what was measured?
z-score, replicate 1: -0.1; z-score, replicate 2: 0.3

With mRpS23, how do the results read?
z-score, replicate 1: 0.5; z-score, replicate 2: 1.5

With CG12990, what does the deposit list?
z-score, replicate 1: -0.3; z-score, replicate 2: -0.9

What is on record for CG18262?
z-score, replicate 1: 0; z-score, replicate 2: -0.3

What is on record for APC10?
z-score, replicate 1: -0.3; z-score, replicate 2: -0.4

Which result is listed for crm?
z-score, replicate 1: -0.3; z-score, replicate 2: -0.5

What is on record for eRF1?
z-score, replicate 1: 1.2; z-score, replicate 2: 1.4

What is on record for TMEM216?
z-score, replicate 1: -0.2; z-score, replicate 2: -0.5

How did the screen score Arpc3B?
z-score, replicate 1: 1.2; z-score, replicate 2: 1.2

What did the screen give for CG17571 #1?
z-score, replicate 1: 0; z-score, replicate 2: 0

For CG17571 #2, how do the results read?
z-score, replicate 1: -0.4; z-score, replicate 2: -0.7

For Sulf1, what does the deposit list?
z-score, replicate 1: -0.4; z-score, replicate 2: -0.3

What is on record for Bap170?
z-score, replicate 1: -0.2; z-score, replicate 2: 0

Which result is listed for CG15109?
z-score, replicate 1: -0.1; z-score, replicate 2: 0.1

6 entries from above in another layout.
CG32473 #2
- z-score, replicate 1: -0.1
- z-score, replicate 2: 0.3

mRpS23
- z-score, replicate 1: 0.5
- z-score, replicate 2: 1.5

CG12990
- z-score, replicate 1: -0.3
- z-score, replicate 2: -0.9

CG18262
- z-score, replicate 1: 0
- z-score, replicate 2: -0.3

APC10
- z-score, replicate 1: -0.3
- z-score, replicate 2: -0.4

crm
- z-score, replicate 1: -0.3
- z-score, replicate 2: -0.5

Next reagents:
For CG32985, how do the results read?
z-score, replicate 1: -0.3; z-score, replicate 2: -0.3

What did the screen give for CG42580?
z-score, replicate 1: -0.3; z-score, replicate 2: -0.4

What did the screen give for CG42634 + CG42635?
z-score, replicate 1: -0.2; z-score, replicate 2: -0.6

What did the screen give for kairos?
z-score, replicate 1: -0.4; z-score, replicate 2: -0.2

What did the screen give for Ptth?
z-score, replicate 1: 0; z-score, replicate 2: -0.2

What did the screen give for CG13982?
z-score, replicate 1: -0.4; z-score, replicate 2: -0.2

For Lcp65Ad, what was measured?
z-score, replicate 1: -0.4; z-score, replicate 2: 0.1

What did the screen give for beat-Va?
z-score, replicate 1: -0.2; z-score, replicate 2: -0.5

With CG1504, what was measured?
z-score, replicate 1: -0.4; z-score, replicate 2: -0.7

What did the screen give for Vha100-1?
z-score, replicate 1: -0.4; z-score, replicate 2: -1

With CG9919, what was measured?
z-score, replicate 1: -0.2; z-score, replicate 2: 0

Which result is listed for CG16772?
z-score, replicate 1: -0.3; z-score, replicate 2: -0.8

With larp #1, what does the deposit list?
z-score, replicate 1: -0.3; z-score, replicate 2: -0.5

For larp #2, what was measured?
z-score, replicate 1: -0.3; z-score, replicate 2: -0.8

With Nulp1, what was measured?
z-score, replicate 1: -0.2; z-score, replicate 2: -0.3

What is on record for Det?
z-score, replicate 1: -0.2; z-score, replicate 2: -0.2

What is on record for ppk31?
z-score, replicate 1: -0.4; z-score, replicate 2: -0.1

Which result is listed for CG11417?
z-score, replicate 1: 0.6; z-score, replicate 2: 2

How did the screen score CG11970?
z-score, replicate 1: -0.5; z-score, replicate 2: -0.6

For CG30338, what was measured?
z-score, replicate 1: 0; z-score, replicate 2: 0

How did the screen score CG33159?
z-score, replicate 1: 0.1; z-score, replicate 2: -0.5

Which result is listed for Elp6?
z-score, replicate 1: 1.6; z-score, replicate 2: 0.3
